Experimental data taken from PubChem BioAssay AID493014 (National Center for Advancing Translational Sciences (NCATS), 2011).
Out of some 340,000 compounds screened, about 170 (0.05%) were called active. Inconclusive results, whose numbers are uncertain, are shown with a selection of clear calls. Calls follow the shape of the dose curve; as a rule, active = well fitted inhibition curve with a large enough effect in the signal ratio, with a control signal flat (not every such curve was filed as active); inconclusive = small, poorly fitted or top-dose-only effect, or effect the other way, or a change in a side signal; inactive = flat fitted curve, though single readings scatter; the % refers to the signal ratio. Where the call is inconclusive, the potency comes from a doubtful curve fit.

Assay: qHTS Assay to Find Inhibitors of Chronic Active B-Cell Receptor Signaling;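 as to activity change, negative = inhibition: plate controls were basal doxycycline-induced cells for no effect and cells given 10 µM MG132 for full effect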
Details: ABC-DLBCL IkBa-CBG/CBR reporter, luminescence ratio (green luciferase fused to IkBa over red control in TMD8 lymphoma cells), 4 h; activity change, negative = inhibition: at 46.1 µM (top of the series) unless noted
Outline: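 TMD8 human ABC-DLBCL cells with doxycycline-inducible IκBα–green luciferase fusion and unfused red luciferase, in 0.5% FBS medium; compounds up to 46 uM, 4 h at 37C. Green/red luminescence ratio, filter-overlap corrected, fitted to concentration-response curves.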
Potency is read from the fitted curve at half-maximal effect.

Question: Which activity change, negative = inhibition does the source give for `CCCc1cc(-n2ccnc2)n2c(nc3ccccc32)c1C#N` here?
Answer: Its activity change, negative = inhibition is inconclusive: -0.315%.

Question: Which “activity change, negative = inhibition” value does the source give for `Cc1ccnc(NS(=O)(=O)c2ccc(NC(=O)c3cc(=O)c4ccccc4o3)cc2)n1` here?
Answer: Its value is inactive: 0.0717%.

Question: With `CC(=O)Nc1cccc(C(=O)N/N=C/c2ccccc2F)c1` as the compound, how does the Potency read?
Answer: Its Potency is inconclusive: 20.6 µM [falling, single point].

Question: For `Cc1ccc(-n2cc(CNC(C)c3cnn(C)c3)c(-c3ccc(F)cc3)n2)cc1` (stereo not given), which activity change, negative = inhibition is on record?
Answer: The activity change, negative = inhibition was inconclusive: -13.6%.

Question: Which activity change, negative = inhibition does the source give for `O=C(NC(=S)NCc1nc2ccccc2[nH]1)c1ccc(F)cc1` here?
Answer: Its activity change, negative = inhibition is inconclusive: -4.54%.

Question: With `CN(c1ccccc1)S(=O)(=O)c1cccc(NC(=O)Cc2ccc(Cl)cc2)c1` as the compound, how does the activity change, negative = inhibition read?
Answer: Its activity change, negative = inhibition is inconclusive: -2.21%.

Question: For `Cc1cccc(NC(=O)[C@H](Cc2ccccc2)NC(=O)OCc2ccccc2)c1`, which activity change, negative = inhibition is on record?
Answer: The activity change, negative = inhibition was inconclusive: 4.05%.

Question: For `CCOc1ccc(CNC(=O)Nc2ccccc2)cc1`, which “activity change, negative = inhibition” value is on record?
Answer: Its value is inactive: -1.46%.

Question: Which activity change, negative = inhibition does the source give for `CCCOc1c(Cl)cc(C(=O)Nc2ccc3c(c2)OCO3)cc1OCC` here?
Answer: The activity change, negative = inhibition was inconclusive: 20%.

Question: For `COC(=O)c1c(C)[nH]c(C(=O)COC(=O)c2c(C)noc2C)c1C`, which activity change, negative = inhibition is on record?
Answer: The activity change, negative = inhibition was inconclusive: 10.1%.

Question: Which Potency does the source give for `COc1ccc(OC)c(C(=O)NC(CC(N)=O)c2ccc(N3CCC(Cc4ccccc4)CC3)c([N+](=O)[O-])c2)c1` (stereo not given) here?
Answer: The Potency was inconclusive: 6.31 µM [falling, single point].

Question: Which “activity change, negative = inhibition” value does the source give for `COc1cccc(CNC(=O)N2CCN(c3ccccc3C)CC2)c1` here?
Answer: The value was inactive: -23.2%.

Question: With `O=C(CCS(=O)(=O)c1ccc(Cl)cc1)Nc1ccccc1Br` as the compound, how does the activity change, negative = inhibition read?
Answer: The activity change, negative = inhibition was inconclusive: 4.82%.

Question: Which activity change, negative = inhibition does the source give for `COc1cc(C(CCN2CCOCC2)c2c(OC)cc(OC)c3c(C)cc(=O)oc23)cc(OC)c1OC` (stereo not given) here?
Answer: Its activity change, negative = inhibition is inconclusive: -18.7%.

Question: Which Potency does the source give for `CCc1cccc(OCCCN2C(=O)NC(C)(C)C2=O)c1` here?
Answer: The Potency was inconclusive: 0.082 µM [falling, full curve, poor fit].

Question: With `C/C(=N/NC(=O)c1cc(-c2cccc([N+](=O)[O-])c2)n[nH]1)c1ccc(Cl)cc1` as the compound, how does the activity change, negative = inhibition read?
Answer: The activity change, negative = inhibition was inconclusive: 1.07%.

Question: Which Potency does the source give for `Cc1ccc(NC(=O)c2cc(-c3ccc(F)cc3)on2)cc1C` here?
Answer: Its Potency is inconclusive: 1 µM [falling, full curve, poor fit].

Question: Which “activity change, negative = inhibition” value does the source give for `CCCCN(c1ccccc1)c1ncnc2c1cnn2-c1cccc(C)c1` here?
Answer: Its value is inactive: 6.31%.

Question: Which Potency does the source give for `C=CCc1cc(/C=N/NC(=O)CSc2nnc(CCCc3ccc(OC)cc3)o2)cc(OC)c1O` here?
Answer: The Potency was inconclusive: 14.6 µM [falling, partial curve].

Question: Which activity change, negative = inhibition does the source give for `CCOc1ccc2nc(NC(=O)CSc3ccc(Cl)cc3)sc2c1` here?
Answer: Its activity change, negative = inhibition is inconclusive: 5.48%.

Question: For `OC(CNCc1ccccc1)COc1ccccc1` (stereo not given), which “activity change, negative = inhibition” value is on record?
Answer: Its value is inactive: -0.932%.

Question: For `CC(=O)c1ccc(NC(=O)COC(=O)Cc2ccsc2)cc1`, which activity change, negative = inhibition is on record?
Answer: Its activity change, negative = inhibition is inconclusive: 5.86%.

Question: With `CCNC(=S)N/N=C(\C)c1ccc(N2CCOCC2)cc1` as the compound, how does the Potency read?
Answer: Its Potency is inconclusive: 20.6 µM [falling, partial curve].

Question: For `CSCCC(NC(=O)c1ccco1)C(=O)N1CCCC(C(F)(F)F)C1` (stereo not given), which activity change, negative = inhibition is on record?
Answer: Its activity change, negative = inhibition is inconclusive: 3.63%.

Question: For `COc1cc2cc(CN(Cc3cccs3)C(=S)Nc3ccccc3)c(=O)[nH]c2cc1OC`, which activity change, negative = inhibition is on record?
Answer: The activity change, negative = inhibition was inconclusive: 6.76%.

Question: For `O=C(COC(=O)C1=COCCO1)Nc1ccc(Br)cc1Br`, which activity change, negative = inhibition is on record?
Answer: Its activity change, negative = inhibition is inconclusive: 7.43%.

Question: Which Potency does the source give for `CN(C)c1ccc2nc3c(=O)[nH]c(=O)nc-3n(CC(O)C(O)C(O)CO)c2c1` (stereo not given) here?
Answer: The Potency was inconclusive: 11.2 µM [rising, partial curve, poor fit].

Question: With `CCCCC1CCC(C(=O)Nc2ccc(S(=O)(=O)Nc3nccs3)cc2)CC1` (stereo not given) as the compound, how does the Potency read?
Answer: The Potency was inconclusive: 13 µM [falling, partial curve, poor fit].

Question: With `COc1ccccc1-c1c(C)nn2c(N3CCN(c4ccc(F)cc4)CC3)cc(C)nc12` as the compound, how does the Potency read?
Answer: The Potency was inconclusive: 3.16 µM [falling, partial curve, poor fit].

Question: With `CCN(CC)CCCNc1oc(-c2ccc(OC)cc2)nc1C#N` as the compound, how does the “activity change, negative = inhibition” value read?
Answer: The value was inactive: 13.5%.

Question: For `O=C(c1ccccc1)c1ccc(OCCCN2CCCCC2)cc1`, which Potency is on record?
Answer: Its Potency is inconclusive: 18.4 µM [rising, single point].

Question: With `CCC/C=N/Nc1nc2ccccc2s1` as the compound, how does the Potency read?
Answer: Its Potency is inconclusive: 31.6 µM [falling, single point].

Question: Which activity change, negative = inhibition does the source give for `Cc1cccc(Nc2nc(N3CCCCC3)nc(N3CCCCC3)n2)c1` here?
Answer: The activity change, negative = inhibition was inconclusive: 16.7%.

Question: Which activity change, negative = inhibition does the source give for `CCOC(=O)N1C=CC=C[C@@H]2[C@@H](N3C(=O)c4ccccc4C3=O)C(=O)N21` here?
Answer: Its activity change, negative = inhibition is inconclusive: 4.05%.

Question: Which activity change, negative = inhibition does the source give for `COc1ccc2nc(C)cc(N3CC(C)OC(C)C3)c2c1` (stereo not given) here?
Answer: Its activity change, negative = inhibition is inconclusive: 12.3%.

Question: For `Cc1ccc2c(c1)COc1c3ccc(C(=O)N[C@@H](C)CO)cc3nn1-2`, which “activity change, negative = inhibition” value is on record?
Answer: The value was inactive: 11.8%.

Question: With `COc1ccc(C(=O)N(Cc2nc(-c3ccc(C)cc3)no2)C2CCCCC2)cc1OC` as the compound, how does the activity change, negative = inhibition read?
Answer: The activity change, negative = inhibition was inconclusive: 4.15%.

Question: Which activity change, negative = inhibition does the source give for `Fc1ccc(CN2CCN(c3ncnc4scc(-c5ccccc5)c34)CC2)cc1` here?
Answer: Its activity change, negative = inhibition is inconclusive: -9.08%.

Question: For `CCOc1cc(C#N)c(NC(=O)c2ccco2)cc1OCC`, which Potency is on record?
Answer: Its Potency is inconclusive: 20 µM [falling, partial curve, poor fit].

Question: For `O=C(Nc1ccc2ncccc2c1)c1cccc(Br)c1`, which Potency is on record?
Answer: The Potency was inconclusive: 22.4 µM [falling, single point].

Question: For `COC(=O)[C@H](Cc1ccccc1)N1C/C=C\COc2c(Cl)cc(Cl)cc2S1(=O)=O`, which activity change, negative = inhibition is on record?
Answer: The activity change, negative = inhibition was inconclusive: 9.52%.

Question: With `COc1ccc(C)cc1NC(=O)c1ccc(N(C)S(C)(=O)=O)cc1` as the compound, how does the activity change, negative = inhibition read?
Answer: The activity change, negative = inhibition was inconclusive: 6.81%.

Question: With `CC1(C)Cc2c(sc3c2C(=O)N(c2ccccc2)C2=NCCN23)CS1` as the compound, how does the activity change, negative = inhibition read?
Answer: Its activity change, negative = inhibition is inconclusive: 11.5%.

Question: Which Potency does the source give for `C/C(CC(=O)Nc1ccc(N(C)C)cc1)=N\NC(=O)c1ccc(Cl)cc1` here?
Answer: The Potency was inconclusive: 12.6 µM [falling, single point].

Question: For `CS(=O)(=O)Nc1ccc(C(=O)NC2CC3CCC2C3)cc1` (stereo not given), which Potency is on record?
Answer: Its Potency is inconclusive: 29.1 µM [falling, single point].

Question: Which “activity change, negative = inhibition” value does the source give for `COc1ccccc1N1CCN(CCOc2c(OC)cccc2OC)CC1` here?
Answer: The value was inactive: -14.3%.

Question: For `O=C(CNc1cc(S(=O)(=O)N2CCOCC2)ccc1N1CCCC1)N1CCc2ccccc21`, which activity change, negative = inhibition is on record?
Answer: Its activity change, negative = inhibition is inconclusive: 4.36%.

Question: Which Potency does the source give for `COc1cccc(NC(=O)Cn2c(=O)oc3ccccc32)c1` here?
Answer: Its Potency is inconclusive: 3.66 µM [falling, single point].

Question: For `CCc1nnc(NC(=O)C(C)Sc2ccccc2)s1` (stereo not given), which activity change, negative = inhibition is on record?
Answer: The activity change, negative = inhibition was inconclusive: 0.911%.

Question: With `OC(COCc1ccccc1)CN1CCc2ccccc2C1` (stereo not given) as the compound, how does the “activity change, negative = inhibition” value read?
Answer: Its value is inactive: 2.15%.
